# Measured values as given in PubChem BioAssay AID624297 (National Center for Advancing Translational Sciences (NCATS), 2012).
# About 6,200 (1.8%) of roughly 340,000 compounds were called active. Inconclusive means that the source gave no clear call. Such entries were picked first, then a sample of the others. Calls follow the shape of the dose curve; as a rule, active = well fitted activation curve with a large enough effect; inconclusive = small, poorly fitted or top-dose-only effect; inactive = no such curve, though single readings can be large or run the other way. Where the call is inconclusive, the potency comes from a doubtful curve fit.
# Test: A quantitative high throughput screen for small molecules that induce DNA re-replication in SW480 colon adenocarcinoma cells. Also: nearly all actives have a fitted effect of over 55% in size. As to re-replication activation: % of control where 0% means no effect.
# Details: Hoechst DNA content imaging, 48 h; re-replication activation: at 46.1 µM (top of the series) unless noted
# Outline: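 Cells (250 per well) received 23 nL compound or DMSO by pin tool and were kept 48 hr at 37 C, 5% CO2. Nuclei were then stained with Hoechst for 40 min and scanned for DNA content.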
# Potency is read from the fitted curve at half-maximal effect.
Compound,re-replication activation,Potency
O=C(c1ccccc1)c1coc2ccc(O)c(Cl)c12,inactive: 5.7%,–
O=C(COC(=O)CNS(=O)(=O)c1ccc(Cl)cc1)NC1CCCCC1,inactive: -3.8%,–
Cc1ccc(C)c(C(=O)COC(=O)CN2C(=O)C3C4CCC(C4)C3C2=O)c1 (centres undefined),–,"inconclusive: 16.4 µM [activator, single point]"
CC(C)(C)CN1CCN(CCCc2ccccc2)C(CCO)C1 (centres undefined),inactive: -6.53% [at 9.22 µM],–
COc1ccc(C(=O)Nc2cccc3nc(C)ccc23)cc1OC,–,"inconclusive: 29.1 µM [activator, single point]"
O=S(=O)(Nc1cccc2nsnc12)c1ccccc1,inactive: 0.226%,–
CCCC(=O)Nc1c2c(nc3ccccc13)N(c1ccccc1)CC2,–,"inconclusive: 16.4 µM [activator, single point]"
O=C(COC(=O)c1cc([N+](=O)[O-])ccc1N1CCOCC1)NCc1ccc(F)cc1,inactive: -3.09%,–
O=S(=O)(CC(CN1CCCCC1)N1CCCCC1)c1ccccc1 (centres undefined),–,"inconclusive: 4.11 µM [activator, partial curve, poor fit]"
O=C(C1CCN(S(=O)(=O)c2ccccc2F)CC1)N1CCN(Cc2ccc3c(c2)OCO3)CC1,–,"inconclusive: 3.66 µM [activator, single point]"
Nc1nc2ccccc2n1CCOc1ccc(Br)cc1,inactive: -1.78%,–
COc1ccccc1C1CC(=O)Nc2cc3c(cc21)OCCO3 (centres undefined),–,active: 2.06 µM
COc1ccccc1-c1nnc(C2CCN(S(=O)(=O)c3ccc([N+](=O)[O-])cc3)CC2)o1,inactive: -30.2%,–
O=S(=O)(c1ccc(F)cc1)N1CCCC1,inactive: -21.8%,–
COc1ccc(-c2csc(NC(=O)CSc3nc4ccccc4c(=O)[nH]3)n2)cc1,–,"inconclusive: 29.1 µM [activator, single point]"
CN1CCN(/N=C2/C(=O)Nc3ccc([N+](=O)[O-])cc32)CC1,–,"inconclusive: 6.51 µM [activator, single point]"
Cc1ccc(-c2nc3c(c(SCC(=O)N4CCOCC4)n2)Cc2c(CO)cnc(C)c2O3)cc1,–,"inconclusive: 29.1 µM [activator, single point]"
O=C(Nc1ccc(Cl)cc1)c1cc2nc(-c3ccco3)cc(C(F)(F)F)n2n1,–,"inconclusive: 0.651 µM [activator, full curve, poor fit]"
O=C(CNC(=O)C(c1ccccc1)c1ccccc1)N/N=C/c1ccc(O)cc1O,–,"inconclusive: 10.3 µM [activator, partial curve, poor fit]"
COc1ccc(NS(=O)(=O)c2ccc(C(=O)NCC3(N4CCOCC4)CCCCC3)cc2)cc1,–,"inconclusive: 32.6 µM [activator, partial curve, poor fit]"
C/C(=N\NC(=O)c1ccc(Br)cc1)c1cccc(NC(=O)c2cccnc2)c1,inactive: -11.6%,–
COc1ccc(C(=O)COC(=O)c2c(C)noc2C)cc1Cl,inactive: -8.23%,–
Cc1c(OC(C)C(=O)NCc2cccnc2)ccc2c3c(c(=O)oc12)CCCC3 (centres undefined),–,"inconclusive: 3.66 µM [activator, single point]"

Compound,re-replication activation,Potency
CC(/C=C/c1ccc2c(c1)OCO2)=N/NC(=O)C1COc2ccccc2O1 (centres undefined),inactive: 10.7%,–
Cc1c(/C=N/NC(=O)COc2ccccc2[N+](=O)[O-])c2ccccc2n1C,–,"inconclusive: 29.1 µM [activator, single point]"
CCOc1ccc(C(=O)NCc2ccco2)cc1OCC,–,"inconclusive: 1.84 µM [activator, partial curve, poor fit]"
O=C(Nc1ccc(-c2nc3ncccc3o2)cc1)c1ccco1,–,"inconclusive: 29.1 µM [activator, single point]"
CN(C)c1ccnc2sc3c(=O)n(Cc4ccccc4)cnc3c12,–,"inconclusive: 8.2 µM [activator, partial curve]"
CCOC(=O)N1CCN(C(=O)/C(=C/c2ccc(OC)c(OC)c2)NC(=O)c2ccccc2)CC1,–,"inconclusive: 6.51 µM [activator, full curve, poor fit]"
Cc1ccc(C#N)c(SCc2ccccc2F)n1,–,"inconclusive: 16.4 µM [activator, single point]"
Cc1cccc(N2CCN(C(=O)c3cccc(S(=O)(=O)N4CCCCC4)c3)CC2)c1C,–,"inconclusive: 29.1 µM [activator, single point]"
Cc1ccc(S(=O)(=O)N(C(=O)c2ccncc2)c2ccc(OC(=O)c3ccncc3)c3ccccc23)c(C)c1,–,"inconclusive: 29.1 µM [activator, single point]"
CC(=O)NC1CCCC(NC(C)=O)C1 (centres undefined),inactive: -1.52%,–
CN(C)CC/C=C1\c2ccccc2CSc2ccccc21,–,"inconclusive: 29.1 µM [activator, single point]"
Cc1ccc(OCCNC(=O)c2ccc3ccccc3n2)cc1,–,"inconclusive: 1.46 µM [activator, full curve]"
O=C(/C=C/c1ccccn1)c1ccc(Br)cc1O,–,"inconclusive: 18.4 µM [activator, partial curve, poor fit]"
COc1ccc(C)cc1NC(=O)c1cnc2scc(C)n2c1=O,–,"inconclusive: 29.1 µM [activator, single point]"
CCOC(=O)c1cc(NC(=O)N(C)C2CCCCC2)c(C)nc1C,inactive: -9.26%,–
COc1ccc(NC(=O)Cc2c(C)n(C(=O)c3ccc(Cl)cc3)c3ccc(OC)cc23)cc1,–,"inconclusive: 29.1 µM [activator, single point]"
CC(=O)c1cccc(NC(=O)c2cccc(S(=O)(=O)N3CCOCC3)c2)c1,inactive: -0.653%,–
CC(=O)Nc1ccc(NC(=O)C2CCCCC2C(=O)O)cc1 (centres undefined),–,"inconclusive: 18.4 µM [activator, single point]"
CCC(=O)OCC(=O)Nc1ccc(OC)cc1[N+](=O)[O-],inactive: -1.27%,–
O=C(NN=Cc1c(O)ccc2ccccc12)C1CC1,–,"inconclusive: 5.17 µM [activator, full curve]"
C=CC[C@]12CC=CC(=O)[C@@]1(O)O[C@H](c1ccc(OC)c(OC)c1)[C@H]2C,–,"inconclusive: 6.51 µM [activator, full curve, poor fit]"
CCCCOC(=O)c1ccc(NC(=O)C(=O)NCc2ccco2)cc1,inactive: 15.4%,–
CCc1nnc(NC(=O)C2CCCN2C(=O)Nc2ccccc2)s1 (centres undefined),inactive: 1.69%,–

# Reprinted at random: 3 compounds from above, in no set order.
Compound,re-replication activation,Potency
CCOc1ccc(C(=O)NCc2ccco2)cc1OCC,–,"inconclusive: 1.84 µM [activator, partial curve, poor fit]"
COc1ccc(-c2csc(NC(=O)CSc3nc4ccccc4c(=O)[nH]3)n2)cc1,–,"inconclusive: 29.1 µM [activator, single point]"
CC(C)(C)CN1CCN(CCCc2ccccc2)C(CCO)C1 (centres undefined),inactive: -6.53% [at 9.22 µM],–

# (list continues)

Compound,re-replication activation,Potency
COc1cc(OC)c(N(C)S(=O)(=O)c2cccc(C(=O)Nc3nccs3)c2)cc1Cl,–,"inconclusive: 23.1 µM [activator, single point]"
COc1ccc(NC(=O)CSc2nnc(-c3ccccn3)n2-c2ccccc2)cc1OC,inactive: -6.77%,–
CC1CCN(S(=O)(=O)c2ccc(S(=O)(=O)NCC(=O)C(C)(C)C)cc2)CC1,–,"inconclusive: 20.6 µM [activator, single point]"
CC(=O)/C=C/c1ccccc1Oc1c(F)c(F)nc(F)c1F,–,active: 18.4 µM
CC(=O)OCC1=C(C(=O)OC(C)(C)C)N2C(=O)[C@@H](NC(=O)Cc3ccccc3)[C@H]2SC1,–,"inconclusive: 11.6 µM [activator, partial curve, poor fit]"
Cc1ccc(C)c(S(=O)(=O)C(C#N)c2nc3ccccc3nc2N2CC(C)OC(C)C2)c1 (centres undefined),–,"inconclusive: 23.1 µM [activator, single point]"
O=C(COc1cccc(Br)c1)NN=C1c2ccccc2-c2ccccc21,inactive: -3.24%,–
CCOc1ccc(NC(=S)N(CCCN2CCCC2)Cc2cccn2Cc2ccc(Cl)cc2)cc1,–,"inconclusive: 20.6 µM [activator, partial curve, poor fit]"
CCOC(=O)c1c(C)oc2c1c1c(c3ccccc32)OCN(Cc2cccnc2)C1,inactive: -3.25%,–
COc1ccc(N(CC(=O)N/N=C(\C)CCc2ccccc2)S(=O)(=O)c2ccc(C)cc2)cc1,inactive: 4.47%,–
COc1cc(/C=N/n2c(-c3ccc4c(c3)NC(=O)CO4)csc2=Nc2cccc(C)c2)ccc1O,–,"inconclusive: 8.2 µM [activator, partial curve, poor fit]"
COc1ccccc1/C=C(\C#N)C(=O)Nc1ccc(S(N)(=O)=O)cc1,–,"inconclusive: 6.51 µM [activator, partial curve]"
COc1cccc(NC(=S)NCc2ccccc2)c1,inactive: -17%,–
Cc1ncc([N+](=O)[O-])n1CC(=O)Nc1ccccc1,inactive: 0.75%,–
Cc1cc(-c2cc(C(=O)Nc3ccccc3)on2)nc(NCC2CC2)n1,inactive: 1.68%,–
CCOC(=O)C1CCN(S(=O)(=O)CCNC(=O)c2cccc(OC)c2)CC1,–,"inconclusive: 0.116 µM [activator, full curve, poor fit]"
COc1ccc(N2CSC3=C(C#N)C(c4cc(OC)ccc4OC)CC(=O)N3C2)c(OC)c1 (centres undefined),–,"inconclusive: 29.1 µM [activator, partial curve, poor fit]"
CC(C)Cc1ccc(CN2CCCC(NC(=O)c3nn(C)c(=O)c4ccccc34)C2)cc1 (centres undefined),–,"inconclusive: 13 µM [activator, partial curve, poor fit]"
CN(C)CCCNC(=O)c1cc(C(=O)c2ccccc2)c[nH]1,inactive: 1.7%,–
Cc1oc(-c2ccccc2)nc1Cn1cccc1C1=NC(c2ccccc2)CO1 (centres undefined),–,"inconclusive: 20.6 µM [activator, single point]"
COc1ccc(C(=O)/C=C/c2ccc(OC)c(COc3ccccc3F)c2)cc1,–,"inconclusive: 29.1 µM [activator, partial curve, poor fit]"
COc1ccc(C(=O)c2sc(Nc3cccc(OC)c3)c(C(=O)Nc3cccc(C)c3C)c2N)cc1,–,"inconclusive: 20.6 µM [activator, partial curve, poor fit]"
Cc1cc([N+](=O)[O-])ccc1P(=O)(O)c1ccc([N+](=O)[O-])cc1C,inactive: -3%,–
